Measurements published in paper PMC5450231.

Sequences of proteins named here, by UniProt entry; tags and fusion partners are left off. A change or cut given only in a name is not applied to a line headed by its entry. Residues count along the entry.
UniProt Q10589, residues 1-161: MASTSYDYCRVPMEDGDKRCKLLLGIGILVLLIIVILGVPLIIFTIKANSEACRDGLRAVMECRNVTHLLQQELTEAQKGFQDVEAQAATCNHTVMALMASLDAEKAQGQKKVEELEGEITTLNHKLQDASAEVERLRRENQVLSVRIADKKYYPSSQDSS

Target: BST2 (as used with endogenous NEDD4, Fig. S1C,D) (UniProt Q10589)
Assay: co-IP; endogenous NEDD4 with BST2 (Fig. S1C,D); cells and direction not given

With “endogenous NEDD4 (from UniProt P46934-4) (enzyme)” as the substance, how does the binding read?
Its binding is “binds”.

No constants are given. Whether binding was seen depends on the method and setting. Binding seen in cells or lysates may run through a third protein. A result given as binding can be weak or reduced; the word gives no strength.
